According to patent publication US10751338B2, “Sustained-release voriconazole-containing thermogel and uses thereof” (priority 2017, dated 2020):
The name of at least one read-out is uncertain.

Test: In vitro release of voriconazole from the thermogel (Example 5)
Type: physicochemical
Details: mean, first-order release
Experimental: Each formulation was tested in triplicate.
The injection volume was 100 μl.

For `C[C@@H](c1ncncc1F)[C@](O)(Cn1cncn1)c1ccc(F)cc1F` [Group 6, voriconazole], which t½ release is on record?
Its t½ release is 25.2 h.
